# In paper PMC5996148:
# Several values for one entry are separate records, joined by “and”; a condition that tells them apart may be missing. Identical values can stand only once. The list shows a part of the results.
# Key:
# Assay in all cases: protein microarray (ProtoArray v5.0), streptavidin-Alexa Fluor 647
# Conditions in all cases: 3'-biotin; 20 mM Tris (pH 7.5), 5 mM MgCl2, 100 mM KCl, 0.1% Tween-20, A/T-rich and random oligonucleotide blockers; temperature not stated; high values mean tight binding
# [1] = system: Inhibitor of growth protein 4 (human)
# [2] = system: Inorganic pyrophosphatase 2, mitochondrial (human)
# [3] = system: Interferon alpha-1/13 (human)
# [4] = system: Interferon alpha-4 (human)
# [5] = system: Interferon-induced guanylate-binding protein 2 (human)
# [6] = system: Interleukin-1 receptor antagonist protein (human)
# [7] = system: Interleukin-18-binding protein (human)
# [8] = system: Interleukin-22 (human)
# [9] = system: Interleukin-24 (human)
# [10] = system: Jouberin (human)
# [11] = system: Junction plakoglobin (human)
# [12] = system: Junctional adhesion molecule C (human)
# [13] = system: KCNIP1 (human)
# [14] = system: KCNIP2 (human)
# [15] = system: KCNK7 (human)
# [16] = system: KCNS2 (human)
# [17] = system: KEL (human)
# [18] = system: KHK (human)
# [19] = system: KIAA0174 (human)
# [20] = system: KIAA0513 (human)
sequence,measurement,setting,value
GGTGACAGGGGTATGGGGAGGGG [G4-2 biotinylated (Ct1)],binding signal,[1],-0.399 z-score
same,binding signal,[2],-0.364 z-score
same,binding signal,[3],-0.38 z-score
same,binding signal,[4],-0.391 z-score and -0.372 z-score
same,binding signal,[5],-0.393 z-score
same,binding signal,[6],-0.359 z-score
same,binding signal,[7],-0.395 z-score
same,binding signal,[8],-0.367 z-score
same,binding signal,[9],-0.38 z-score
same,binding signal,[10],3.45 z-score
same,binding signal,[11],-0.378 z-score
same,binding signal,[12],-0.386 z-score
same,binding signal,[13],-0.397 z-score
same,binding signal,[14],-0.4 z-score and -0.382 z-score and -0.399 z-score
same,binding signal,[15],-0.382 z-score
same,binding signal,[16],-0.377 z-score
same,binding signal,[17],-0.359 z-score
same,binding signal,[18],-0.4 z-score
same,binding signal,[19],-0.401 z-score
same,binding signal,[20],-0.37 z-score
